## Primary screen of a compound library

Sequences of proteins named here, by UniProt entry; tags and fusion partners are left off.
UniProt I6X8D2, whole entry: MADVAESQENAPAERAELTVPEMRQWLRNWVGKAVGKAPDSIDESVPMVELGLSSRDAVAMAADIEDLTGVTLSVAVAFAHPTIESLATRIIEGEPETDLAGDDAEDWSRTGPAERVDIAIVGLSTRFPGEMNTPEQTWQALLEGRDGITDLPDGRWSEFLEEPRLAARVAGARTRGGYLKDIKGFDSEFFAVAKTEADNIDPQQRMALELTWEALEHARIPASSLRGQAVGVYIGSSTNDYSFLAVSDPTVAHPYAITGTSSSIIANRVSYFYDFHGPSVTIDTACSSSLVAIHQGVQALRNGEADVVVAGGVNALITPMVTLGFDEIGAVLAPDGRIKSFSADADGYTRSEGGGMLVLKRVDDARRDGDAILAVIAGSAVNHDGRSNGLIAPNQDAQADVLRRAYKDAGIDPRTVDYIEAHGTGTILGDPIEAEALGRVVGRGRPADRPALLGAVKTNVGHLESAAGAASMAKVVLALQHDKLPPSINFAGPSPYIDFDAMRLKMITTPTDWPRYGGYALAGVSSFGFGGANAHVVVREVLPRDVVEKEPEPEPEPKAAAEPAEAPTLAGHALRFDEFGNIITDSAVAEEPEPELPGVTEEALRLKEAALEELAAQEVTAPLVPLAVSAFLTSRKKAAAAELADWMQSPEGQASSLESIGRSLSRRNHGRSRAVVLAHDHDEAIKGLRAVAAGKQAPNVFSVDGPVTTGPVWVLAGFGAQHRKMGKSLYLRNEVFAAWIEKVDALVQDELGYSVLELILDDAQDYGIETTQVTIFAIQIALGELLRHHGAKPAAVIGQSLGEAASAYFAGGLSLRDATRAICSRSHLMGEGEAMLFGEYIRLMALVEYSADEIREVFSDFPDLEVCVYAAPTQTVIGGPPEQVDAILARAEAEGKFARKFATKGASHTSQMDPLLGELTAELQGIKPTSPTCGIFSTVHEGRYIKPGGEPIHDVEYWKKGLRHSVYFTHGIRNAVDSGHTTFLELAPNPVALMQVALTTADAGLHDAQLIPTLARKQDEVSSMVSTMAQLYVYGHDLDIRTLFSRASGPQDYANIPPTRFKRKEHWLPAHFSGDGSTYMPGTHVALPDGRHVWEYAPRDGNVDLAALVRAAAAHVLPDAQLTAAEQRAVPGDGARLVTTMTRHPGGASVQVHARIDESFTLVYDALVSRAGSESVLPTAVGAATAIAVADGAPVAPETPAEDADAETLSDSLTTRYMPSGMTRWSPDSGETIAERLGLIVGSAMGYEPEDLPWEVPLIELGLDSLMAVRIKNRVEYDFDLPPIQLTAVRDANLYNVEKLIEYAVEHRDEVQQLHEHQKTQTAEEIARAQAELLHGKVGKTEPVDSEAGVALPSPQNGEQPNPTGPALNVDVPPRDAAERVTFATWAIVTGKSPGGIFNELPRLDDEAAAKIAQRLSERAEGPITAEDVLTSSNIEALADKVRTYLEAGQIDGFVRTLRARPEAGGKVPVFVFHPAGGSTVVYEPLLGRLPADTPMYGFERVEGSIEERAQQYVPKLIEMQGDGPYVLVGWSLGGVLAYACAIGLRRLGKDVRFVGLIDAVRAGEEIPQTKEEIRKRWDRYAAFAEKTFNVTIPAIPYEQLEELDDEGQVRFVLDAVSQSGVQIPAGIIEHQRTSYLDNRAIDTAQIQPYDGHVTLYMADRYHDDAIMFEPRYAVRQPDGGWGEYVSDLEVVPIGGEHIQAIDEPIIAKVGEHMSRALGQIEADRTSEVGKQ

Each number is a percent effect as filed. The record does not define 0% and 100%; most values in the screen are far below 50% and negative numbers occur (in some assays of this library far below -100). Compounds were drawn at random from those tested, without regard to their results.

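Enzyme assay of the thioesterase domain of polyketide synthase 13; the read-out is not stated. Target: Polyketide synthase Pks13, Mycobacterium tuberculosis (UniProt I6X8D2). Compounds at 30 µM. The record gives no direction; the compounds picked for IC50 retests had high values, so higher reads as stronger inhibition. Of about 67,000 compounds tested this way, about 300 (0.46%) reached 50% or more in at least one test.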

Compound	effect
CN1C(=N)NC(=O)/C1=C\c1ccc(-c2ccc(F)cc2)o1	12.89
CCN(CCN1CCCCCC1)C(=O)COc1cccnc1	-10.71
CCc1ccc(OCC(O)CN2CCN(S(C)(=O)=O)CC2)cc1 (stereo unspecified)	-11.71
CN(C)CC(=O)N1Cc2ncn(C)c2C(COCC2CCOCC2)C1 (stereo unspecified)	-24.56
O=C(O)C1CCN(C(=O)CCn2ccc3cc(Br)ccc32)CC1	-21.56
COc1ccc(-c2ccc(C(=O)NS(C)(=O)=O)c(F)c2)c(F)c1	-17.74
CC(C)c1cc(C(=O)N2CCCN(Cc3ccccc3)CC2)n[nH]1	-32.28
CCN(CC)CCCNCc1cc2cccc(C)c2[nH]c1=O	1.722
COCC(=O)N1C[C@H]2CNC[C@@]2(C(=O)NCc2nc(C)cc(C)n2)C1	-11.3
c1csc(-c2cc(CN3CCN(c4cnccn4)CC3)no2)c1	-21.67
Cc1ccc(Cl)c2c1C1(NC(=O)c3cccnc3N1)C(=O)N2 (stereo unspecified)	-3.567
CCNC(=O)N1CCC(c2ccccc2)C1 (stereo unspecified)	-2.267
CCN1CCN(S(=O)(=O)c2cc(C)c(C)cc2Br)CC1	-13.5
CC(C)OCCC(=O)N(C)c1ccc(F)c(Cl)c1	-21.64
Cc1noc(CS(=O)(=O)C/C=C/c2ccccc2)n1	-31
CC(C)n1cc(S(=O)(=O)N2CCCCCC2)cn1	-17.94
CN(Cc1ccco1)C(=O)C1CCCc2ccccc21 (stereo unspecified)	-12.47
Cn1nccc1C(=O)N1CCOC(Cc2ccc(Cl)cc2)C1 (stereo unspecified)	-7.618
CC(C)N1CCc2nnc(COc3cncnc3)n2CC1	-12.03
O=C(C1CCCCO1)N1CCc2ncnc(NCCO)c2CC1 (stereo unspecified)	-22.78
CCSC1(CNc2ncc(Br)cn2)CCOCC1	-7.17
CN1CCOC(CNCc2csc(C3CCCCC3)n2)C1 (stereo unspecified)	-22.88
Cc1cccc(C2CC(=O)Nc3c2c(=O)[nH]n3C(C)C)c1 (stereo unspecified)	-34.12
Cc1noc(C)c1CN1CCc2c(CNc3nccs3)n[nH]c2C1	9.029
CNC(=O)CS(=O)(=O)NC1CCC(C)CC1 (stereo unspecified)	4.515
O=C(CN1CCCNC1=O)N(Cc1ccccc1)CC(F)F	-4.865
CCC(Nc1nnnn1-c1ccccc1)C(=O)NC1CCSCC1 (stereo unspecified)	-31.35
Cc1nn(C)c(C)c1C1SCC(=O)Nc2c1c(O)nn2C(C)C (stereo unspecified)	-3.901
Cc1nc(C)n(CC2CN(CCCOc3ccccc3)CCO2)n1 (stereo unspecified)	-15.42
CCn1nc(C)c2ccn(CC(=O)NCCN3CCCCC3)c(=O)c21	-4.772
O=C(CCN1CCSCC1c1ccccc1)N1CCOCC1 (stereo unspecified)	-8.886
Cc1nn(CCNS(=O)(=O)c2ccccc2)c(C)c1Cl	-18.67
CC(C)N1CCOCC2(CCCN(C(=O)c3cn(C)cn3)C2)C1 (stereo unspecified)	13.41
Cc1cccc(C)c1CNC1(CCO)CCOCC1	-38.92
CS(=O)(=O)N1CCC2(CCN(C(=O)c3cccnc3)CC2)C1	-15.76
CN1CCC(N2Cc3nc(N)ncc3C2=O)CC1	-32.17
Cc1ccc2nc(C)cc(C(=O)N3C[C@H]4CCC[C@@]4(CO)C3)c2c1	-7.209
O=C(NCC1CC1)C12CC(CN1Cc1nccs1)C2	-38.13
CCNC(=O)[C@@H]1C[C@@H](NC(=O)c2ccc(C#N)cc2)CN1CCCSC	-15.87
CC(C)n1cc(CN2CCCN(C(=O)c3ccco3)CC2)cn1	-15.33
CC(C)C1CCCN1C(=O)c1ccc(-n2ncc(C#N)c2N)cc1 (stereo unspecified)	-34.36
COCCOCC(=O)N1CCCC(c2ncc[nH]2)C1 (stereo unspecified)	-12.84
Fc1cnc(N2CCC3(CCCN(c4nncs4)C3)C2)nc1 (stereo unspecified)	-5.52
CC(c1nc(C2CC2)no1)N1CCC(NS(=O)(=O)c2cccs2)CC1 (stereo unspecified)	-31.64
COc1cccc(COCC(=O)N2CCCC(n3cncn3)C2)c1 (stereo unspecified)	-6.547
CCOc1ccc(CCC(=O)N2CC[C@H]3C(=O)NCCO[C@H]3C2)cc1	-32.07
Cc1cc(C(F)(F)F)nc(CCNc2nc(C)nc3c2cnn3C)n1	-18.73
Cc1ccc(NC(=O)N2CCC3(CCC(C(=O)N(C)C)O3)CC2)cc1 (stereo unspecified)	-0.5114
Cc1ccccc1OC1CCN(C(=O)c2c[nH]c(=O)[nH]c2=O)CC1	-27.62
Cc1cc(CN2CCN(C(=O)NC(C)Cn3ccnc3)CC2)no1 (stereo unspecified)	-23.71
CNC(=O)C1CCN(c2ncnc3c2CCN(C(=O)C2CC2)C3)C1 (stereo unspecified)	5.556
CCC(C)N1CCC(Oc2ccc(C(=O)NCCN(C)C)cc2Cl)CC1 (stereo unspecified)	-5.637
CCn1ncc2[nH]c(-c3cc(OC)c(OC)cc3OC)nc21	24.59
CCc1ncc2c(n1)CN(C(C)C(=O)Nc1ccc(Cl)cn1)CC2 (stereo unspecified)	-13.56
CC(CCc1cccn1C)NC(=O)Nc1cccn(C)c1=O (stereo unspecified)	5.974
Cc1cccc(C(=O)N2C[C@@H]3OCCN(C(C)C)[C@@H]3C2)n1	-8.209
O=C(NCCO)Nc1ccc(Br)c(F)c1	-21.71
CCn1cc(CNC(=O)CCc2nnc(-c3ccc(C)s3)o2)cn1	-2.161
CC(C)c1ccc(C(CN)N2CCc3sccc3C2)cc1 (stereo unspecified)	-20
O=C(c1cccc(S(=O)(=O)NCCCn2cccn2)c1)N1CCOCC1	1.826
Cc1cc(C(F)(F)F)nc(CCNC(C)Cn2nc(C)cc2C)n1 (stereo unspecified)	7.626
Cc1cc(C(=O)NCc2cccnc2N2CCc3ccccc3C2)[nH]n1	-22.56
CCN(CC)C(=O)c1nnsc1-c1ccc(C)cc1	-10.75
O=C(Cc1csc(-c2cccc(Cl)c2)n1)NCc1cccc(C(=O)O)c1	-0.5295
Cc1cccc(CN(Cn2nc(C)c3c(C)onc3c2=O)C2CC2)c1	-41.53

The first 6 entries again:

CN1C(=N)NC(=O)/C1=C\c1ccc(-c2ccc(F)cc2)o1 gave 12.89%.
CCN(CCN1CCCCCC1)C(=O)COc1cccnc1 gave -10.71%.
CCc1ccc(OCC(O)CN2CCN(S(C)(=O)=O)CC2)cc1 (stereo unspecified) gave -11.71%.
CN(C)CC(=O)N1Cc2ncn(C)c2C(COCC2CCOCC2)C1 (stereo unspecified) gave -24.56%.
O=C(O)C1CCN(C(=O)CCn2ccc3cc(Br)ccc32)CC1 gave -21.56%.
COc1ccc(-c2ccc(C(=O)NS(C)(=O)=O)c(F)c2)c(F)c1 gave -17.74%.

Data taken from ChEMBL document CHEMBL3988442, “University of Dundee, Small-Polar-MMV Screening Library” (2021).